Measurements reported in PubChem BioAssay AID1259254 (NCATS, 2017)
The whole screen tested about 59,000 reagents; below is a random part of them. In the full data, about 1,550 (2.6%) got an active call. 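G2 share is only a proxy for re-replication; each gene was hit by three separate siRNAs, and active genes were retested.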 The raw values are shown without normalisation. Reagents against one gene are numbered here. Reagent sequences are not shown. Not stated in the record: the amount of reagent.

Assay: 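Finding genes that stop cells copying their DNA twice in one cycle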 (primary screen)
Cells: human HCT116 colorectal cancer cells
Reagent: single siRNA against human genes
Duration: 3 days
Measurement: 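Imaged Hoechst DNA stain sorts each cell into a cycle phase by DNA amount; per plate, G2 fraction set to 0% for non-targeting and 100% for GMNN siRNA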
Scale: G2 robust z-score and G2 cells, % of GMNN control: higher = more G2 cells, more excess DNA replication; raw share of cells in G2: higher = larger share of cells with G2 DNA content
Hit rule: 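Active siRNAs have a G2 robust z of 5 or more median absolute deviations over the median, which in these data means about 38% or higher of GMNN control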

gene | siRNA no. | G2 robust z-score | G2 cells, % of GMNN control | raw share of cells in G2 (%) | outcome
PHPT1 (GeneID 29085) | 1 | 4.13 | 32 | 14.8 | inactive
PHPT1 (GeneID 29085) | 2 | 1.52 | 13.7 | 12.4 | inactive
PHPT1 (GeneID 29085) | 3 | -0.594 | -1.21 | 3.59 | inactive
YIPF7 (GeneID 285525) | 1 | 1.42 | 13 | 8.37 | inactive
YIPF7 (GeneID 285525) | 2 | 1.59 | 14.2 | 8.53 | inactive
YIPF7 (GeneID 285525) | 3 | 6.03 | 45.4 | 17.1 | active
SPAG7 (GeneID 9552) | 1 | -0.675 | -1.78 | 4.03 | inactive
SPAG7 (GeneID 9552) | 2 | -0.231 | 1.34 | 5.71 | inactive
SPAG7 (GeneID 9552) | 3 | 1.8 | 15.6 | 8.53 | inactive
ZC3H8 (GeneID 84524) | 1 | -0.535 | -0.794 | 3.84 | inactive
ZC3H8 (GeneID 84524) | 2 | -0.171 | 1.76 | 3.98 | inactive
ZC3H8 (GeneID 84524) | 3 | 0.134 | 3.91 | 3.59 | inactive
LCE5A (GeneID 254910) | 1 | -0.354 | 0.477 | 3.35 | inactive
LCE5A (GeneID 254910) | 2 | 0.973 | 9.81 | 7.13 | inactive
LCE5A (GeneID 254910) | 3 | 0.396 | 5.75 | 5.1 | inactive
GPX1 (GeneID 2876) | 1 | -0.989 | -3.99 | 3.79 | inactive
GPX1 (GeneID 2876) | 2 | -0.192 | 1.61 | 4.23 | inactive
GPX1 (GeneID 2876) | 3 | 4.91 | 37.5 | 19.5 | inactive
ARHGAP15 (GeneID 55843) | 1 | -0.369 | 0.373 | 4.67 | inactive
ARHGAP15 (GeneID 55843) | 2 | 0.838 | 8.87 | 7.81 | inactive
ARHGAP15 (GeneID 55843) | 3 | -0.849 | -3.01 | 2.18 | inactive
ADGRB2 (GeneID 576) | 1 | -0.851 | -3.02 | 4.76 | inactive
ADGRB2 (GeneID 576) | 2 | 2.39 | 19.8 | 11.4 | inactive
ADGRB2 (GeneID 576) | 3 | 0.283 | 4.96 | 4.79 | inactive
ARFGAP2 (GeneID 84364) | 1 | -0.247 | 1.23 | 5.94 | inactive
ARFGAP2 (GeneID 84364) | 2 | 0.424 | 5.95 | 6.35 | inactive
ARFGAP2 (GeneID 84364) | 3 | -0.548 | -0.885 | 4.46 | inactive
SLIT3 (GeneID 6586) | 1 | 3.73 | 29.2 | 14.6 | inactive
SLIT3 (GeneID 6586) | 2 | -0.812 | -2.75 | 3.05 | inactive
SLIT3 (GeneID 6586) | 3 | -1.22 | -5.64 | 3.78 | inactive
ITGB3 (GeneID 3690) | 1 | -0.589 | -1.18 | 4.62 | inactive
ITGB3 (GeneID 3690) | 2 | 4.57 | 35.1 | 19.1 | inactive
ITGB3 (GeneID 3690) | 3 | -0.467 | -0.319 | 4.08 | inactive
PARGP1 (GeneID 728407) | 1 | -0.816 | -2.77 | 2.55 | inactive
PARGP1 (GeneID 728407) | 2 | 0.116 | 3.78 | 4.98 | inactive
PARGP1 (GeneID 728407) | 3 | 0.25 | 4.72 | 4.54 | inactive
LDOC1 (GeneID 23641) | 1 | 1.74 | 15.2 | 10.1 | inactive
LDOC1 (GeneID 23641) | 2 | -0.839 | -2.94 | 2.67 | inactive
LDOC1 (GeneID 23641) | 3 | 0.0598 | 3.39 | 4.48 | inactive
OR52J3 (GeneID 119679) | 1 | -0.418 | 0.0264 | 4.1 | inactive
OR52J3 (GeneID 119679) | 2 | -0.655 | -1.64 | 2.84 | inactive
OR52J3 (GeneID 119679) | 3 | -0.191 | 1.63 | 2.29 | inactive
ATXN3 (GeneID 4287) | 1 | -0.263 | 1.12 | 3.9 | inactive
ATXN3 (GeneID 4287) | 2 | 1.05 | 10.3 | 9.68 | inactive
ATXN3 (GeneID 4287) | 3 | 3.97 | 30.9 | 14.3 | inactive
VRK2 (GeneID 7444) | 1 | 0.0391 | 3.24 | 6.6 | inactive
VRK2 (GeneID 7444) | 2 | 3.27 | 26 | 12 | inactive
VRK2 (GeneID 7444) | 3 | -1.13 | -4.97 | 3.38 | inactive
CMTM1 (GeneID 113540) | 1 | -0.621 | -1.4 | 3.53 | inactive
CMTM1 (GeneID 113540) | 2 | -0.354 | 0.479 | 3.47 | inactive
CMTM1 (GeneID 113540) | 3 | 1.45 | 13.1 | 5.66 | inactive
KCTD12 (GeneID 115207) | 1 | -0.0132 | 2.87 | 4.08 | inactive
KCTD12 (GeneID 115207) | 2 | 2.28 | 19 | 9.76 | inactive
KCTD12 (GeneID 115207) | 3 | -0.389 | 0.233 | 3.61 | inactive
SPINK14 (GeneID 408187) | 1 | 0.924 | 9.47 | 10 | inactive
SPINK14 (GeneID 408187) | 2 | -0.762 | -2.39 | 4.03 | inactive
SPINK14 (GeneID 408187) | 3 | 0.244 | 4.68 | 5.99 | inactive
OPRD1 (GeneID 4985) | 1 | -0.47 | -0.338 | 5.72 | inactive
OPRD1 (GeneID 4985) | 2 | 0.871 | 9.1 | 7.7 | inactive
OPRD1 (GeneID 4985) | 3 | -1.04 | -4.34 | 1.94 | inactive
PCDHB9 (GeneID 56127) | 1 | 1.53 | 13.7 | 12.5 | inactive
PCDHB9 (GeneID 56127) | 2 | -0.34 | 0.577 | 4.65 | inactive
PCDHB9 (GeneID 56127) | 3 | -0.636 | -1.51 | 3.7 | inactive
RPS27L (GeneID 51065) | 1 | -0.336 | 0.604 | 3.44 | inactive
RPS27L (GeneID 51065) | 2 | 1.23 | 11.6 | 8.3 | inactive
RPS27L (GeneID 51065) | 3 | 1.12 | 10.9 | 8.66 | inactive
LRBA-AS1 (GeneID 729558) | 1 | -0.889 | -3.29 | 1.97 | inactive
LRBA-AS1 (GeneID 729558) | 2 | 0.382 | 5.66 | 6.32 | inactive
LRBA-AS1 (GeneID 729558) | 3 | 0.165 | 4.13 | 4.61 | inactive
GON4L (GeneID 54856) | 1 | 1.6 | 14.2 | 7.81 | inactive
GON4L (GeneID 54856) | 2 | 0.236 | 4.63 | 8 | inactive
GON4L (GeneID 54856) | 3 | -0.0691 | 2.48 | 4.41 | inactive
NDUFB11 (GeneID 54539) | 1 | -0.668 | -1.73 | 3.14 | inactive
NDUFB11 (GeneID 54539) | 2 | -0.862 | -3.1 | 3.1 | inactive
NDUFB11 (GeneID 54539) | 3 | 4.7 | 36 | 22.3 | inactive
CHRDL1 (GeneID 91851) | 1 | -0.786 | -2.56 | 3 | inactive
CHRDL1 (GeneID 91851) | 2 | 2.59 | 21.2 | 9.63 | inactive
CHRDL1 (GeneID 91851) | 3 | 1.25 | 11.8 | 6.65 | inactive
TMEM130 (GeneID 222865) | 1 | -0.654 | -1.63 | 2.67 | inactive
TMEM130 (GeneID 222865) | 2 | -0.434 | -0.0826 | 3.55 | inactive
TMEM130 (GeneID 222865) | 3 | 1.43 | 13 | 7.6 | inactive
CCL20 (GeneID 6364) | 1 | 0.222 | 4.53 | 5.46 | inactive
CCL20 (GeneID 6364) | 2 | -0.0469 | 2.64 | 6.57 | inactive
CCL20 (GeneID 6364) | 3 | 1.97 | 16.8 | 10.3 | inactive
SPEN (GeneID 23013) | 1 | -0.666 | -1.72 | 3.28 | inactive
SPEN (GeneID 23013) | 2 | -0.284 | 0.97 | 4.48 | inactive
SPEN (GeneID 23013) | 3 | -1.2 | -5.46 | 4.18 | inactive

Copied from the list:
Under “outcome”, GPX1 (GeneID 2876) #2 shows inactive
For “outcome”, LRBA-AS1 (GeneID 729558) #3 reads inactive
OR52J3 (GeneID 119679) #1, G2 robust z-score → -0.418
For “G2 cells, % of GMNN control”, SPAG7 (GeneID 9552) #3 has 15.6
Entry for YIPF7 (GeneID 285525) #3 in “raw share of cells in G2 (%)”: 17.1
